Article PMC5805733
No constants are given. Whether binding was seen depends on the method and setting. For some assays here: In cells and extracts the contact can be indirect. Some results given as binding are weak or reduced against the parent protein; the word gives no strength. For some assays here: Where a sequence is shown, tags or fusion partners need not be part of it.

B1: PilO_(Δ109) (core region of PilO) as T18 and T25 fusions (domain or fragment, UniProt G3XD51 110-207)
chain: PGLLEDITRTGLGSGLEFEEIKLLPEVAQQFYIELPIQISVVGGYHDLATFVSGVSSLPRIVTLHDFEIKPVAPGSTSKLRMSILAKTYRYNDKGLKK

Tests used:
[1] = molecular target: PilPΔ18 with an N-terminal 6-His tag (PilP_(Δ18_His)) (Pseudomonas aeruginosa) (UniProt G3XCX7); assay: pull-down; Ni-NTA (His-Trap FF) capture of His-tagged PilPΔ18 from the lysate of combined E. coli pellets; 20 mM HEPES pH 7.5, 500 mM KCl, 10% glycerol, imidazole gradient; eluate read by SDS-PAGE with Coomassie or Western blot
[2] = molecular target: PilO_(Δ109) (core region of PilO) as T18 and T25 fusions (Pseudomonas aeruginosa) (UniProt G3XD51); assay: two-hybrid; bacterial two-hybrid (adenylate cyclase T18/T25) in E. coli BTH101; spotted on MacConkey agar with 1% maltose, 48 h at 30 °C

Molecule	binding [1]	binding [2]
PilNΔ44/PilOΔ51 (untagged, co-expressed soluble periplasmic fragments of PilN and PilO) (from UniProt G3XD30 45-198; G3XD51 52-207) (complex)	binds	
B1		binds
